The record followed here is the odorant receptor screen of Mainland et al. (2015).

Chains of the proteins cited; added tags and fusions are not shown. Chains listed by the source or under a name are the forms on record and can include a tag or linker.
OR4F14 A297T, as listed by the source, stated change not applied: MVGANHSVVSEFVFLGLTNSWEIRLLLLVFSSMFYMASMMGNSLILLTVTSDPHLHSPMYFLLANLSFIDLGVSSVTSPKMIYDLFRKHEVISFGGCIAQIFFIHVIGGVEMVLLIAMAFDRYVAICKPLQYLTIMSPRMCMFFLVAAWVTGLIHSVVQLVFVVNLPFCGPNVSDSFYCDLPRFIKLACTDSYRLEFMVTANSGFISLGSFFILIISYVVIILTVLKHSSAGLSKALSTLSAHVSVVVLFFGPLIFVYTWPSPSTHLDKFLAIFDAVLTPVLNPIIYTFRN

Each structure is given as a SMILES string. Where “and” joins values, the source holds several entries; their conditions need not be identical. Equal values may be shown once. The list shows a part of the results. Each value is one well over the wells without odorant, computed here; the data are noisy.

Test systems include OR4B1 clone 1189; OR4C12 V283L clone 1155; OR4C15 clone 1337; OR4C15 clone 1449; OR4C5 clone 1307; OR4D1 clone 1316; OR4D10 clone 1174; OR4D11 clone 1243; OR4D5 clone 1122; OR4D6 D96G clone 1225; OR4D9 clone 1217; OR4F14 A297T clone 1059; OR4C11 clone 1244; OR4C3 clone 1284; OR4C3 clone 1480; OR4C46 K288R clone 1483; OR4D1 R54Q clone 1467.
What all share (test): odorant receptor activation (CRE luciferase / Renilla) (fold of no-odor wells); higher = more activation
Common to all, as to details: 100 µM

The test system of test [1] is OR4C16 V25L/T76A/L259P clone 1237.
Test [2] deals with OR4D2 C97S/L187F clone 1285.
The test system of test [3] is OR4E2 V118M/Q234R clone 1274.

`CC1COCc2cc3c(cc21)C(C)(C)C(C)C3(C)C` (stereo not given) [galaxolide]: the odorant receptor activation in the test on OR4B1 clone 1189 is 0.643; with OR4C12 V283L clone 1155 it was 4.46; in the test on OR4C15 clone 1337, 1.63 and 1.08; with OR4C15 clone 1449 it was 2.92; in test [1], 0.413 and 0.88; with OR4C5 clone 1307 it was 1.08 and 2.57. Further, the odorant receptor activation with OR4D1 clone 1316 was 1.38 and 2.78; in the test with OR4D10 clone 1174, 0.743; in the test with OR4D11 clone 1243 it was 1.16 and 1.07; in test [2] it was 0.791 and 1.69; in the test with OR4D5 clone 1122 it was 0.839 and 1.82; in the test with OR4D6 D96G clone 1225, 0.864. Besides, the odorant receptor activation is 3.66 in the test on OR4D9 clone 1217; 3.37 and 5.2 in test [3]; 3.07 in the test with OR4F14 A297T clone 1059.
In the case of `CCCCO` [1-butanol], the odorant receptor activation was 1.07 in the test on OR4B1 clone 1189; 1.24 in the test on OR4C11 clone 1244; 0.989 in the test with OR4C12 V283L clone 1155; 1.06 in the test with OR4C15 clone 1337; 1.04 with OR4C15 clone 1449; 0.833 in test [1]. Moreover, the odorant receptor activation was 0.899 in the test with OR4C3 clone 1284; 1.02 in the test on OR4C3 clone 1480; 1.28 in the test on OR4C46 K288R clone 1483; 1.4 in the test with OR4C5 clone 1307; 1.2 in the test with OR4D1 R54Q clone 1467; 1.12 in the test with OR4D1 clone 1316. The odorant receptor activation with OR4D10 clone 1174 was found to be 1.03; in the test with OR4D11 clone 1243, 1.3; in test [2], 1.18; with OR4D5 clone 1122, 0.782; in the test on OR4D6 D96G clone 1225, 0.787; with OR4D9 clone 1217 it was 0.955. In addition, the odorant receptor activation in [3] worked out at 0.857; with OR4F14 A297T clone 1059, 3.45.
As for `CC1=NC(C)SC1C` (stereo not given), the odorant receptor activation in the test with OR4B1 clone 1189 is 1.23; with OR4C11 clone 1244, 1.56; with OR4C12 V283L clone 1155, 0.834; in the test on OR4C15 clone 1337 it was 2.63; in the test with OR4C15 clone 1449, 1.01 and 0.823; with OR4C3 clone 1284, 0.638. The odorant receptor activation is 0.938 and 1.26 in the test on OR4C3 clone 1480; 1.24 and 1.28 in the test on OR4C46 K288R clone 1483; 0.592 with OR4C5 clone 1307; 0.838 and 0.607 in the test with OR4D1 R54Q clone 1467; 0.489 with OR4D1 clone 1316; 1.42 with OR4D10 clone 1174. For the same compound, the odorant receptor activation in the test on OR4D11 clone 1243 stood at 1.65; in test [2], 1.6; in the test on OR4D6 D96G clone 1225, 0.919; in the test with OR4D9 clone 1217 it was 1.11; in [3], 0.644; in the test with OR4F14 A297T clone 1059, 1.67.
Regarding `C=C(C)C1CCC2=CC(=O)CC(C)C2(C)C1` (stereo not given) [amyl laurate], the results for the odorant receptor activation (in test [1]; in the test on OR4D5 clone 1122) were 1.15 and 2.09, respectively.
Consider `c1cnccn1` [pyrazine], for which the odorant receptor activation came out at 0.751 in the test with OR4B1 clone 1189; 0.754 in the test on OR4C11 clone 1244; 0.667 in the test on OR4C12 V283L clone 1155; 0.659 with OR4C15 clone 1337; 1.17 in the test on OR4C15 clone 1449; 0.803 in test [1]. In addition, the odorant receptor activation in the test with OR4C3 clone 1284 was determined as 0.827; with OR4C3 clone 1480, 0.797; in the test on OR4C46 K288R clone 1483 it was 0.697; in the test on OR4C5 clone 1307 it was 0.874; with OR4D1 R54Q clone 1467 it was 0.801; with OR4D1 clone 1316, 0.797. Also, the odorant receptor activation with OR4D10 clone 1174 stood at 0.753; in the test on OR4D11 clone 1243, 0.657; in test [2], 0.644; in the test on OR4D5 clone 1122, 1.17; in the test with OR4D6 D96G clone 1225 it was 1.28; with OR4D9 clone 1217 it was 1.21. The odorant receptor activation was 1.07 in test [3] and 1.16 with OR4F14 A297T clone 1059.
As to `CCCC(=O)O` [butyric acid], the odorant receptor activation in the test on OR4B1 clone 1189 was found to be 1.13; in the test on OR4C11 clone 1244, 1.1; with OR4C12 V283L clone 1155, 1.11; with OR4C15 clone 1337, 0.913; with OR4C15 clone 1449, 0.183; in test [1], 0.817. Besides, the odorant receptor activation in the test with OR4C3 clone 1284 turned out to be 0.836; in the test on OR4C3 clone 1480, 0.902; with OR4C46 K288R clone 1483, 1.22; with OR4C5 clone 1307, 1.17; with OR4D1 R54Q clone 1467, 1.47; in the test with OR4D1 clone 1316 it was 0.958. Moreover, the odorant receptor activation came to 0.988 with OR4D10 clone 1174; 0.844 with OR4D11 clone 1243; 1.13 in test [2]; 1.46 in the test on OR4D5 clone 1122; 0.788 in the test on OR4D6 D96G clone 1225; 0.942 with OR4D9 clone 1217. Further, the odorant receptor activation in [3] was found to be 1.17; in the test with OR4F14 A297T clone 1059 it was 1.14.
With `C=CCc1ccc(OC(C)=O)c(OC)c1` [eugenol acetate], the odorant receptor activation with OR4B1 clone 1189 worked out at 1.41; in the test on OR4C11 clone 1244, 1.71; in the test with OR4C12 V283L clone 1155, 2.02; in the test on OR4C15 clone 1337, 1.46; with OR4C15 clone 1449, 1.58; in test [1], 1.28. The odorant receptor activation worked out at 1.89 in the test with OR4C3 clone 1284; 1.65 with OR4C3 clone 1480; 1.58 in the test with OR4C46 K288R clone 1483; 1.93 in the test on OR4C5 clone 1307; 2.12 with OR4D1 R54Q clone 1467; 1.84 in the test with OR4D1 clone 1316. Also, the odorant receptor activation with OR4D10 clone 1174 was 1.54; in the test with OR4D11 clone 1243, 1.52; in test [2], 1.87; with OR4D5 clone 1122 it was 1.38; in the test on OR4D6 D96G clone 1225 it was 1.5; in the test with OR4D9 clone 1217, 1.36. Also, the odorant receptor activation in test [3] is 1.75; with OR4F14 A297T clone 1059 it was 1.65.
In the case of `COc1ccccc1O` [guaiacol], the odorant receptor activation is 0.999 with OR4B1 clone 1189; 0.852 and 1.06 in the test on OR4C11 clone 1244; 1.05 with OR4C12 V283L clone 1155; 1 and 1.12 in the test on OR4C15 clone 1337; 0.975 with OR4C15 clone 1449; 1.1 in test [1]. Also, the odorant receptor activation in the test with OR4C3 clone 1284 was 0.468 and 0.893; in the test on OR4C3 clone 1480, 1.1 and 1.39; in the test with OR4C46 K288R clone 1483, 0.811 and 1.22; in the test on OR4C5 clone 1307, 1.04 and 0.942; in the test with OR4D1 R54Q clone 1467, 0.984 and 1.21; with OR4D1 clone 1316 it was 1.25 and 0.697. For the same compound, the odorant receptor activation is 1.07 in the test with OR4D10 clone 1174; 1.31 and 0.983 in the test with OR4D11 clone 1243; 0.727 and 1.32 in [2]; 1.38 in the test on OR4D5 clone 1122; 1.29 in the test with OR4D6 D96G clone 1225; 0.816 in the test on OR4D9 clone 1217. For the same compound, the figures for the odorant receptor activation (in test [3]; with OR4F14 A297T clone 1059) were 1.19 and 1.27, respectively.
